According to the supplement of paper PMC12823440, “Inhibitors supercharge kinase turnover through native proteolytic circuits” (Nature, 2025):
Where a name gives a salt, the structure may show the parent alone. Some of the results follow. The calls rarely recur for the same compound in another form.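 Kinases, fused to nanoluciferase, were expressed in K562 cells; luminescence was measured every 4 h from 2 to 18 h as percent of control (DMSO = 100%, positive control = 0%). A time point is decreased if signal falls significantly (2 sigma). Hits were called by the authors by a rule that is not shown; the count of time points alone does not decide it.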

By UniProt entry, the sequences of proteins in these tests, tags left out. Where a name states a change or a piece, a line headed by the entry shows the natural chain unless it says otherwise.
UniProt Q9Y616: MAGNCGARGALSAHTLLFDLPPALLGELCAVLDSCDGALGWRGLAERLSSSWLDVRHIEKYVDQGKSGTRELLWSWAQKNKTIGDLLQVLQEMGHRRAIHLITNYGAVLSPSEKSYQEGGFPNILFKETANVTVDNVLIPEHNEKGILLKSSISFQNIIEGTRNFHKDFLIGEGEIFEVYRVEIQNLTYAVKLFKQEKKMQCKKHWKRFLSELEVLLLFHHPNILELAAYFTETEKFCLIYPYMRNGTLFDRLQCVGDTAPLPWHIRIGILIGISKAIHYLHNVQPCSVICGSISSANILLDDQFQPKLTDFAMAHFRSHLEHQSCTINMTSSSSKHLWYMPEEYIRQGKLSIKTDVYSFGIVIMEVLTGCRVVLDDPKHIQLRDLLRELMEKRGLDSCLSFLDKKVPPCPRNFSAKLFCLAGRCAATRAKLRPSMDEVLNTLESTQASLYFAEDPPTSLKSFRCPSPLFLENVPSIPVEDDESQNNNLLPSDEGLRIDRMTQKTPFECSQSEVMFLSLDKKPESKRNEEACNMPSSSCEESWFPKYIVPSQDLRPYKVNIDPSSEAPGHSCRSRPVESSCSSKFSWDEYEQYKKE
UniProt P23458: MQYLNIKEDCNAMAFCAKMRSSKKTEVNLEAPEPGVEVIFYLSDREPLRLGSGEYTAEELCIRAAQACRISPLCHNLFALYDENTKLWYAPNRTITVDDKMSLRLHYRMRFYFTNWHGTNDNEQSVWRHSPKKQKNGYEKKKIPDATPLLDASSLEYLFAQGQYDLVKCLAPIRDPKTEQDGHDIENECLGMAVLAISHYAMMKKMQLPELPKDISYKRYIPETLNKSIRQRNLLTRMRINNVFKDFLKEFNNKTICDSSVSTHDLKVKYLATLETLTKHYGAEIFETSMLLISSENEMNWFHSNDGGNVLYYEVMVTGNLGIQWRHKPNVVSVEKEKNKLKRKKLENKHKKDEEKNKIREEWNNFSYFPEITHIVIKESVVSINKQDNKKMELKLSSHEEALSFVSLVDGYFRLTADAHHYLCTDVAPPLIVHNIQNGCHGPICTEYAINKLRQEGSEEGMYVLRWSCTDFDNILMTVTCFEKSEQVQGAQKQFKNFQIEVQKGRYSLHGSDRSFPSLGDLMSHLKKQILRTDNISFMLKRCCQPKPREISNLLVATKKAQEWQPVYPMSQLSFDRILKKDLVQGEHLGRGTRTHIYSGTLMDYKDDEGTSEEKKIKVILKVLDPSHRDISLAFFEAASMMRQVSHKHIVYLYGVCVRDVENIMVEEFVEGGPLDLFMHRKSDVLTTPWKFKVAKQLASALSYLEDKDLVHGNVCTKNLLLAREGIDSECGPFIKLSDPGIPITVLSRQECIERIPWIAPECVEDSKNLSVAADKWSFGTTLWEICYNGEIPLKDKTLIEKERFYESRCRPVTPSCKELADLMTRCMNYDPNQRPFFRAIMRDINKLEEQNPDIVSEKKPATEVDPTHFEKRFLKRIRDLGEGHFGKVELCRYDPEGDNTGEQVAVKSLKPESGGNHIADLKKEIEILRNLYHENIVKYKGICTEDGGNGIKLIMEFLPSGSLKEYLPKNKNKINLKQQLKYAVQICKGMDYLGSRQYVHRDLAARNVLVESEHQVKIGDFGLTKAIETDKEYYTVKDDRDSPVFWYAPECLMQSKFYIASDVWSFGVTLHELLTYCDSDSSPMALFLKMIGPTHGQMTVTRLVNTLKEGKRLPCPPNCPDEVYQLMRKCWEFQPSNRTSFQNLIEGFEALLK
UniProt P06239: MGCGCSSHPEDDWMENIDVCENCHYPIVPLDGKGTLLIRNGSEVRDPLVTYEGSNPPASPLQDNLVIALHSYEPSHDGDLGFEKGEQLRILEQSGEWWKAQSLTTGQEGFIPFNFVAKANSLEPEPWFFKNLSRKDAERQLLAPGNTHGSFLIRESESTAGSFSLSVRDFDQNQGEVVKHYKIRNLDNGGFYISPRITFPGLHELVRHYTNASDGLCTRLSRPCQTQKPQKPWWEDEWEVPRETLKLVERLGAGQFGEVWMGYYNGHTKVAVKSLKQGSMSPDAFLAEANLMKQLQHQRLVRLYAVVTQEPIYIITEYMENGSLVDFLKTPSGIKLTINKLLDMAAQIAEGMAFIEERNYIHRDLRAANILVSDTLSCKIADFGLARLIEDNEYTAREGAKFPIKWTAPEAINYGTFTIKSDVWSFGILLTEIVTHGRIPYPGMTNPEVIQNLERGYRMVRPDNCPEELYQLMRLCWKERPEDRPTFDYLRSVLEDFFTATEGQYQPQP
UniProt P53671: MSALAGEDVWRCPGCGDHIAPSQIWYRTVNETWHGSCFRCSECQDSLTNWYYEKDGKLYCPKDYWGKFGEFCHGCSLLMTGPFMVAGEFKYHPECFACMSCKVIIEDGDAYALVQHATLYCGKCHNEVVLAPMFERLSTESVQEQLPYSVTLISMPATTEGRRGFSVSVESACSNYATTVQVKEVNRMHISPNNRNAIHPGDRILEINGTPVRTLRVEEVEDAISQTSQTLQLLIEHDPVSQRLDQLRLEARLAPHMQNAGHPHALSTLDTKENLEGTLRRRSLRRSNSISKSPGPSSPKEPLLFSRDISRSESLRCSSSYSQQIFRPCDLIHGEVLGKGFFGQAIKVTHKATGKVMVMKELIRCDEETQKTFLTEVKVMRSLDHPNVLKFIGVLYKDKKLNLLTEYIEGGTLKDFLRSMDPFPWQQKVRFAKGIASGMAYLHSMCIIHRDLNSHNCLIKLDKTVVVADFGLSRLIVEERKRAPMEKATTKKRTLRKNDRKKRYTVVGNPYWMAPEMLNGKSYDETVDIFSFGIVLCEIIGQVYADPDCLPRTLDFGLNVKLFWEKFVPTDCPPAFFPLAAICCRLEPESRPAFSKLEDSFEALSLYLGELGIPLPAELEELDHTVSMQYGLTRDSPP
UniProt P07948: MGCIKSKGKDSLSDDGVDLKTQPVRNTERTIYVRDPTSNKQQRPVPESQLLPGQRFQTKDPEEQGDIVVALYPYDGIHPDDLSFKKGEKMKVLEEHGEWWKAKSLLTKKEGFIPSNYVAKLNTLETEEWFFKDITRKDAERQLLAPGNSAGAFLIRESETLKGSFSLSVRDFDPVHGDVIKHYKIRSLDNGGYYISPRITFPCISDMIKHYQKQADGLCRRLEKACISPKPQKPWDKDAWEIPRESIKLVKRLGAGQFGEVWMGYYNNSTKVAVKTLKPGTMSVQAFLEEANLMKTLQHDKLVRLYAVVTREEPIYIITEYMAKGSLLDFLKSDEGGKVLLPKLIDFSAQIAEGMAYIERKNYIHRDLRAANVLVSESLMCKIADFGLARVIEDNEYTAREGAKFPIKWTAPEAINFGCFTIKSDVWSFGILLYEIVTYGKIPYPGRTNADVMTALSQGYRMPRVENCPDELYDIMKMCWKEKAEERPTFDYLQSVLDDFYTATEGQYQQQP
UniProt P28482, whole entry: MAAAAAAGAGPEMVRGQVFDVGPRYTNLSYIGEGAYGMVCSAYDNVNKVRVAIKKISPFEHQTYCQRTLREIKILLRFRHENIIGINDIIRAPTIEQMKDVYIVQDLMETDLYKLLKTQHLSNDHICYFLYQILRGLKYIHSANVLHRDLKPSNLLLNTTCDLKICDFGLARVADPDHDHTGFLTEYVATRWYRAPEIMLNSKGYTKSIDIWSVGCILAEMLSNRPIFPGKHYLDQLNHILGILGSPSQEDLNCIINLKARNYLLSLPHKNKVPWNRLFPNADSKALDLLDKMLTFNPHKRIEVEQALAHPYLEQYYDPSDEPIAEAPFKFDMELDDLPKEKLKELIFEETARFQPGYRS
UniProt P31152, whole entry: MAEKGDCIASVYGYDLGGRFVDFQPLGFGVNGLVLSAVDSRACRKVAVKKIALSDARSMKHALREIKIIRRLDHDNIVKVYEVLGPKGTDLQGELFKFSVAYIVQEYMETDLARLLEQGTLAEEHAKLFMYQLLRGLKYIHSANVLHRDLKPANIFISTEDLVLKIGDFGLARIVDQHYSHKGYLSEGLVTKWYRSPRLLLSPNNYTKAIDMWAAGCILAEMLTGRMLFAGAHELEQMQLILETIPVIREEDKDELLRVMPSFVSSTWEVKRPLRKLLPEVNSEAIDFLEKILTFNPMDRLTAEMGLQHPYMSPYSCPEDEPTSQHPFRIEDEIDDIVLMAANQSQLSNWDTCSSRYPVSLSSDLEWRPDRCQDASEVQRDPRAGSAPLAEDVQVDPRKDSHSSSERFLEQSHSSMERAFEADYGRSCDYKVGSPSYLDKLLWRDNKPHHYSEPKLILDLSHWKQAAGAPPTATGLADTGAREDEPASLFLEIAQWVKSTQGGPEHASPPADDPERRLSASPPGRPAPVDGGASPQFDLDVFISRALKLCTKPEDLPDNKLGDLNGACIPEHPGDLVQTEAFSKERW
UniProt Q9BUB5: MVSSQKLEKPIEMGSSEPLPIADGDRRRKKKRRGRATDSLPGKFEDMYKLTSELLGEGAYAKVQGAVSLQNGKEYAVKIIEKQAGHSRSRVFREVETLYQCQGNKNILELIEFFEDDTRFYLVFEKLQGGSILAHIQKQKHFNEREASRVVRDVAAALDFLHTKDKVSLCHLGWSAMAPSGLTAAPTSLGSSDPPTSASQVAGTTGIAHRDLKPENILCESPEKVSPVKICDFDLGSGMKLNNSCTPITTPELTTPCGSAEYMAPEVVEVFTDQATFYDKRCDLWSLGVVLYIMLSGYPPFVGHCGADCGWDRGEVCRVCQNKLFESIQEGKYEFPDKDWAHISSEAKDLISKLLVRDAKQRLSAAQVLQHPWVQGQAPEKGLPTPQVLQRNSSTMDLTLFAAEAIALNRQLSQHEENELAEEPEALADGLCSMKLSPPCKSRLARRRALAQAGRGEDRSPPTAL
UniProt P09619, whole entry: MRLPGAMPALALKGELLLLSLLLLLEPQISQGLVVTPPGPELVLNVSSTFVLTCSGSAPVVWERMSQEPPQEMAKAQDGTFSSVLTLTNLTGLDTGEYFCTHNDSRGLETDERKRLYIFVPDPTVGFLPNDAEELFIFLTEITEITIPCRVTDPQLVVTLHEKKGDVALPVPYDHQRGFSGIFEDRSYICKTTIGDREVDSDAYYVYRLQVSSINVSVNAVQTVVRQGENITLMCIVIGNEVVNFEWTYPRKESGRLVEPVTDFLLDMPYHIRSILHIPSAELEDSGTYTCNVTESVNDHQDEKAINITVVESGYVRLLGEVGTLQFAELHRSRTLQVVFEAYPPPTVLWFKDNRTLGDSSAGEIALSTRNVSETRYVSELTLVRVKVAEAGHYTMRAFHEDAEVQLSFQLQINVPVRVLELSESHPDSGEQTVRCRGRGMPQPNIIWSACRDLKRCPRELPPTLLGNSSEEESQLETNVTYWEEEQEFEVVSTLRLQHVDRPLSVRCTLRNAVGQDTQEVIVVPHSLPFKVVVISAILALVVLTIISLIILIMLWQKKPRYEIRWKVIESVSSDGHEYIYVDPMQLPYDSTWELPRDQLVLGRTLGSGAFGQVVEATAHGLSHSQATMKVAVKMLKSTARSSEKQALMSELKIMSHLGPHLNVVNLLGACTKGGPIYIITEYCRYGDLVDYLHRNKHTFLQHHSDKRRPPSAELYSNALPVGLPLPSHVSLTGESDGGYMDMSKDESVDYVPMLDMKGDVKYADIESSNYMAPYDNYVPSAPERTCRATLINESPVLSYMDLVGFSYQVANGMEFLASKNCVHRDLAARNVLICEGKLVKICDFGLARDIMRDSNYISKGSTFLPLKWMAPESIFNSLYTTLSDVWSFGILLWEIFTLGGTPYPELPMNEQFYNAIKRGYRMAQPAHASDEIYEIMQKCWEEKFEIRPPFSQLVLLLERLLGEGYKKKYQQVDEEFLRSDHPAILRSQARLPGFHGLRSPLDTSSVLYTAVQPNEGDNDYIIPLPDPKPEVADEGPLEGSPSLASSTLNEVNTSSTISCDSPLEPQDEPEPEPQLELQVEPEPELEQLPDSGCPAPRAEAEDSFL
UniProt Q15118, whole entry, looked up: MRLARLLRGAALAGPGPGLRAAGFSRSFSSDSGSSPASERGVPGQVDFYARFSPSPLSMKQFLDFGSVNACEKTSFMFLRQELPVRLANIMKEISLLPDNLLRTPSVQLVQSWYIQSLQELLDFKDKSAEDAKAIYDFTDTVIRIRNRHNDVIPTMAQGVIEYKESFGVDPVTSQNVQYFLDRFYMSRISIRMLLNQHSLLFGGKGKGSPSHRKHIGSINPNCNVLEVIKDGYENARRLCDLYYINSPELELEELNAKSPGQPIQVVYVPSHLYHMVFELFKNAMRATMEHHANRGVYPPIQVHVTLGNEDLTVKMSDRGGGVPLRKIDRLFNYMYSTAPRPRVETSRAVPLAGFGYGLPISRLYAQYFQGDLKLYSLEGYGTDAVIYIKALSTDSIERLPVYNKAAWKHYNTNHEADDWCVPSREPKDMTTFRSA

Legend:
Assay in all cases: kinase-Nluc reporter destabilization hit call (1 = scored as downregulated) (binary); higher = compound decreases kinase abundance
Details in all cases: K562; 2-18 h
IRAK3 = IRAK3 (UniProt Q9Y616)
JAK1 = JAK1 (UniProt P23458)
LCK = LCK (UniProt P06239)
LIMK1 = LIMK1 (UniProt P53667)
LIMK2 = LIMK2 (UniProt P53671)
LMTK2 = LMTK2 (UniProt Q8IWU2)
LYN = LYN (UniProt P07948)
MAP2K1 = MAP2K1 (UniProt Q02750)
MAP2K2 = MAP2K2 (UniProt P36507)
MAP4K2 = MAP4K2 (UniProt Q12851)
MAPK1 = MAPK1 (UniProt P28482)
MAPK4 = MAPK4 (UniProt P31152)
MAPKAPK2 = MAPKAPK2 (UniProt P49137)
MKNK1 = MKNK1 (UniProt Q9BUB5)
NTRK2 = NTRK2 (UniProt Q16620)
NTRK3 = NTRK3 (UniProt Q16288)
PAK4 = PAK4 (UniProt O96013)
PBK = PBK (UniProt Q96KB5)
PDGFRB = PDGFRB (UniProt P09619)
PDK1 = PDK1 (UniProt Q15118)

Measured: kinase-Nluc reporter destabilization hit call

Cn1cc(-c2ccc3nnc(C(F)(F)c4ccc5ncccc5c4)n3n2)cn1 (10 µM)
inactive: IRAK3 = 0 | JAK1 = 0 | LCK 0 | LIMK1 = 0 | LIMK2 = 0 | LMTK2 = 0 | LYN 0 | MAP2K1 = 0 | MAP2K2 = 0 | MAP4K2 = 0 | MAPK1 = 0 | MAPK4 = 0 | MAPKAPK2 = 0 | MKNK1 = 0 | NTRK2 = 0 | NTRK3 = 0 | PAK4 = 0 | PBK 0 | PDGFRB 0 | PDK1 = 0

CC(=O)NCCc1c[nH]c2ccc(O)cc12 [N-Acetyl-5-hydroxytryptamine] (10 µM)
inactive: IRAK3 = 0 | JAK1 = 0 | LCK 0 | LIMK1 = 0 | LIMK2 = 0 | LMTK2 = 0 | LYN 0 | MAP2K1 = 0 | MAP2K2 = 0 | MAP4K2 = 0 | MAPK1 = 0 | MAPK4 = 0 | MAPKAPK2 = 0 | MKNK1 = 0 | NTRK2 = 0 | NTRK3 = 0 | PAK4 = 0 | PBK 0 | PDGFRB 0 | PDK1 = 0

C=CC(=O)Nc1cccc(-n2c(=O)cc(C)c3cnc(Nc4ccc(OCCN(C)C)cc4OC)nc32)c1 (10 µM)
inactive: IRAK3 = 0 | JAK1 = 0 | LCK 0 | LIMK1 = 0 | LIMK2 = 0 | LMTK2 = 0 | LYN 0 | MAP2K1 = 0 | MAP2K2 = 0 | MAP4K2 = 0 | MAPK1 = 0 | MAPK4 = 0 | MAPKAPK2 = 0 | MKNK1 = 0 | NTRK2 = 0 | NTRK3 = 0 | PAK4 = 0 | PBK 0 | PDGFRB 0 | PDK1 = 0

O=C(O)c1cc(O)c2c(c1)[C@@H]([C@H]1c3cc(C(=O)O)cc(O)c3C(=O)c3c(O[C@@H]4O[C@H](CO)[C@@H](O)[C@H](O)[C@H]4O)cccc31)c1cccc(O[C@@H]3O[C@H](CO)[C@@H](O)[C@H](O)[C@H]3O)c1C2=O [Sennoside B] (2.5 µM)
inactive: IRAK3 = 0 | JAK1 = 0 | LCK 0 | LIMK1 = 0 | LIMK2 = 0 | LMTK2 = 0 | LYN 0 | MAP2K1 = 0 | MAP2K2 = 0 | MAP4K2 = 0 | MAPK1 = 0 | MAPK4 = 0 | MAPKAPK2 = 0 | MKNK1 = 0 | NTRK2 = 0 | NTRK3 = 0 | PAK4 = 0 | PBK 0 | PDGFRB 0 | PDK1 = 0

CC(C)C[C@H](NC(=O)[C@H](CCCCN)NC(=O)[C@H](CO)NC(=O)[C@@H](N)CC(C)C)C(N)=O [LSKL, Inhibitor of Thrombospondin (TSP-1) (TFA)] (10 µM)
inactive: IRAK3 = 0 | JAK1 = 0 | LCK 0 | LIMK1 = 0 | LIMK2 = 0 | LMTK2 = 0 | LYN 0 | MAP2K1 = 0 | MAP2K2 = 0 | MAP4K2 = 0 | MAPK1 = 0 | MAPK4 = 0 | MAPKAPK2 = 0 | MKNK1 = 0 | NTRK2 = 0 | NTRK3 = 0 | PAK4 = 0 | PBK 0 | PDGFRB 0 | PDK1 = 0

C=CS(=O)(=O)c1ccc(Nc2nc(OCC3CCCCC3)c3[nH]cnc3n2)cc1 (2.5 µM)
inactive: IRAK3 = 0 | JAK1 = 0 | LCK 0 | LIMK1 = 0 | LIMK2 = 0 | LMTK2 = 0 | LYN 0 | MAP2K1 = 0 | MAP2K2 = 0 | MAP4K2 = 0 | MAPK1 = 0 | MAPK4 = 0 | MAPKAPK2 = 0 | MKNK1 = 0 | NTRK2 = 0 | NTRK3 = 0 | PAK4 = 0 | PBK 0 | PDGFRB 0 | PDK1 = 0

O=C(O)c1ccc(-c2c[nH]c3ncc(-c4ccccc4)cc23)cc1C1CCCC1 (2.5 µM)
inactive: IRAK3 = 0 | JAK1 = 0 | LCK 0 | LIMK1 = 0 | LIMK2 = 0 | LMTK2 = 0 | LYN 0 | MAP2K1 = 0 | MAP2K2 = 0 | MAP4K2 = 0 | MAPK1 = 0 | MAPK4 = 0 | MAPKAPK2 = 0 | MKNK1 = 0 | NTRK2 = 0 | NTRK3 = 0 | PAK4 = 0 | PBK 0 | PDGFRB 0 | PDK1 = 0

CC(C)c1cnn2c(NCc3ccccc3-n3cccn3)nc(OC3CCCNC3)nc12 (stereo not given) (2.5 µM)
inactive: IRAK3 = 0 | JAK1 = 0 | LCK 0 | LIMK1 = 0 | LIMK2 = 0 | LMTK2 = 0 | LYN 0 | MAP2K1 = 0 | MAP2K2 = 0 | MAP4K2 = 0 | MAPK1 = 0 | MAPK4 = 0 | MAPKAPK2 = 0 | MKNK1 = 0 | NTRK2 = 0 | NTRK3 = 0 | PAK4 = 0 | PBK 0 | PDGFRB 0 | PDK1 = 0

Nc1ncc(-c2ccc(C(=O)N3CCNCC3)cc2)nc1-c1ccc(C(F)(F)F)cc1 (10 µM)
inactive: IRAK3 = 0 | JAK1 = 0 | LCK 0 | LIMK1 = 0 | LIMK2 = 0 | LMTK2 = 0 | LYN 0 | MAP2K1 = 0 | MAP2K2 = 0 | MAP4K2 = 0 | MAPK1 = 0 | MAPK4 = 0 | MAPKAPK2 = 0 | MKNK1 = 0 | NTRK2 = 0 | NTRK3 = 0 | PAK4 = 0 | PBK 0 | PDGFRB 0 | PDK1 = 0

CC(C)(C)c1cc(C(c2cc3c(cc2O)OCO3)N2CCOCC2)cc(C(C)(C)C)c1O (stereo not given) (2.5 µM)
inactive: IRAK3 = 0 | JAK1 = 0 | LCK 0 | LIMK1 = 0 | LIMK2 = 0 | LMTK2 = 0 | LYN 0 | MAP2K1 = 0 | MAP2K2 = 0 | MAP4K2 = 0 | MAPK1 = 0 | MAPK4 = 0 | MAPKAPK2 = 0 | MKNK1 = 0 | NTRK2 = 0 | NTRK3 = 0 | PAK4 = 0 | PBK 0 | PDGFRB 0 | PDK1 = 0

c1ccc(-c2oc3ncnc(NC[C@@H]4CCCO4)c3c2-c2ccccc2)cc1 (2.5 µM)
inactive: IRAK3 = 0 | JAK1 = 0 | LCK 0 | LIMK1 = 0 | LIMK2 = 0 | LMTK2 = 0 | LYN 0 | MAP2K1 = 0 | MAP2K2 = 0 | MAP4K2 = 0 | MAPK1 = 0 | MAPK4 = 0 | MAPKAPK2 = 0 | MKNK1 = 0 | NTRK2 = 0 | NTRK3 = 0 | PAK4 = 0 | PBK 0 | PDGFRB 0 | PDK1 = 0

CN(C)c1ncnc2nc[nH]c12 [6-(Dimethylamino)purine] (10 µM)
inactive: IRAK3 = 0 | JAK1 = 0 | LCK 0 | LIMK1 = 0 | LIMK2 = 0 | LMTK2 = 0 | LYN 0 | MAP2K1 = 0 | MAP2K2 = 0 | MAP4K2 = 0 | MAPK1 = 0 | MAPK4 = 0 | MAPKAPK2 = 0 | MKNK1 = 0 | NTRK2 = 0 | NTRK3 = 0 | PAK4 = 0 | PBK 0 | PDGFRB 0 | PDK1 = 0

COc1cc(N2CCC(O)CC2)ccc1Nc1cc(Nc2ccccc2S(=O)(=O)C(C)C)c2cc[nH]c2n1 (10 µM)
inactive: IRAK3 = 0 | JAK1 = 0 | LCK 0 | LIMK1 = 0 | LIMK2 = 0 | LMTK2 = 0 | LYN 0 | MAP2K1 = 0 | MAP2K2 = 0 | MAP4K2 = 0 | MAPK1 = 0 | MAPK4 = 0 | MAPKAPK2 = 0 | MKNK1 = 0 | NTRK2 = 0 | NTRK3 = 0 | PAK4 = 0 | PBK 0 | PDGFRB 0 | PDK1 = 0

C[C@H]1[C@H](OC(=O)CCC(=O)O)O[C@@H]2O[C@@]3(C)CC[C@H]4[C@H](C)CC[C@@H]1[C@@]24OO3 [Artesunate] (2.5 µM)
inactive: IRAK3 = 0 | JAK1 = 0 | LCK 0 | LIMK1 = 0 | LIMK2 = 0 | LMTK2 = 0 | LYN 0 | MAP2K1 = 0 | MAP2K2 = 0 | MAP4K2 = 0 | MAPK1 = 0 | MAPK4 = 0 | MAPKAPK2 = 0 | MKNK1 = 0 | NTRK2 = 0 | NTRK3 = 0 | PAK4 = 0 | PBK 0 | PDGFRB 0 | PDK1 = 0

CCC(C)(C)C(=O)N(O)Cc1ccccc1 (10 µM)
inactive: IRAK3 = 0 | JAK1 = 0 | LCK 0 | LIMK1 = 0 | LIMK2 = 0 | LMTK2 = 0 | LYN 0 | MAP2K1 = 0 | MAP2K2 = 0 | MAP4K2 = 0 | MAPK1 = 0 | MAPK4 = 0 | MAPKAPK2 = 0 | MKNK1 = 0 | NTRK2 = 0 | NTRK3 = 0 | PAK4 = 0 | PBK 0 | PDGFRB 0 | PDK1 = 0

O=c1ccoc2cc(O)ccc12 [7-Hydroxy-4H-chromen-4-one] (10 µM)
inactive: IRAK3 = 0 | JAK1 = 0 | LCK 0 | LIMK1 = 0 | LIMK2 = 0 | LMTK2 = 0 | LYN 0 | MAP2K1 = 0 | MAP2K2 = 0 | MAP4K2 = 0 | MAPK1 = 0 | MAPK4 = 0 | MAPKAPK2 = 0 | MKNK1 = 0 | NTRK2 = 0 | NTRK3 = 0 | PAK4 = 0 | PBK 0 | PDGFRB 0 | PDK1 = 0

Random excerpt: 2 entries already listed.
COc1cc(N2CCC(O)CC2)ccc1Nc1cc(Nc2ccccc2S(=O)(=O)C(C)C)c2cc[nH]c2n1 (10 µM)
inactive: IRAK3 = 0 | JAK1 = 0 | LCK 0 | LIMK1 = 0 | LIMK2 = 0 | LMTK2 = 0 | LYN 0 | MAP2K1 = 0 | MAP2K2 = 0 | MAP4K2 = 0 | MAPK1 = 0 | MAPK4 = 0 | MAPKAPK2 = 0 | MKNK1 = 0 | NTRK2 = 0 | NTRK3 = 0 | PAK4 = 0 | PBK 0 | PDGFRB 0 | PDK1 = 0

C[C@H]1[C@H](OC(=O)CCC(=O)O)O[C@@H]2O[C@@]3(C)CC[C@H]4[C@H](C)CC[C@@H]1[C@@]24OO3 [Artesunate] (2.5 µM)
inactive: IRAK3 = 0 | JAK1 = 0 | LCK 0 | LIMK1 = 0 | LIMK2 = 0 | LMTK2 = 0 | LYN 0 | MAP2K1 = 0 | MAP2K2 = 0 | MAP4K2 = 0 | MAPK1 = 0 | MAPK4 = 0 | MAPKAPK2 = 0 | MKNK1 = 0 | NTRK2 = 0 | NTRK3 = 0 | PAK4 = 0 | PBK 0 | PDGFRB 0 | PDK1 = 0

Next part

Cc1cc2ncc(-c3ccccc3)nc2cc1C (10 µM)
inactive: IRAK3 = 0 | JAK1 = 0 | LCK 0 | LIMK1 = 0 | LIMK2 = 0 | LMTK2 = 0 | LYN 0 | MAP2K1 = 0 | MAP2K2 = 0 | MAP4K2 = 0 | MAPK1 = 0 | MAPK4 = 0 | MAPKAPK2 = 0 | MKNK1 = 0 | NTRK2 = 0 | NTRK3 = 0 | PAK4 = 0 | PBK 0 | PDGFRB 0 | PDK1 = 0

CC1(COc2ccc3c(c2)ncn3-c2ccc3cccc(N4CCC(N)CC4)c3n2)COC1 [Crenolanib] (2.5 µM)
inactive: IRAK3 = 0 | JAK1 = 0 | LCK 0 | LIMK1 = 0 | LIMK2 = 0 | LMTK2 = 0 | LYN 0 | MAP2K1 = 0 | MAP2K2 = 0 | MAP4K2 = 0 | MAPK1 = 0 | MAPK4 = 0 | MAPKAPK2 = 0 | MKNK1 = 0 | NTRK2 = 0 | NTRK3 = 0 | PAK4 = 0 | PBK 0 | PDGFRB 0 | PDK1 = 0
